Results on one compound are retold here after publication PMC12044415 (RSC Advances, 2025).

The subject of experiment [1] is A2780 (cisplatin-sensitive ovarian cancer cells). Put plainly: Cell viability assay. Type of experiment: cell-based, human. Particulars: read-out: IC50 A2780; 96 h of incubation. Summed up:
(§1)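 Cells cultured per supplier at 37 °C, 5% CO2, and seeded at 1.5 × 10^3 per well. Treated with six concentrations of test compound (0.001, 0.01, 0.1, 1, 10 and 100 μM final), diluted into culture medium from a 10 mM DMSO stock; cisplatin stock in water. Viability read by CellTiter-Glo after 96 h. IC50 from triplicates, error bars as standard deviations.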

Experiment [2] concerns MDA-MB-231 (triple-negative breast cancer). Put plainly: Cell viability assay. Type of experiment: cell-based, human. The conditions noted are these: read-out: IC50 MDA-MB-231; 96 h of incubation. The essentials: as §1

Regarding `N.N.[Cl][Pt][Cl]` [Cisplatin, cisplatin], the 50% inhibitory concentration (IC50) in experiment [1] came to 2.7 ± 0.3 µM; in experiment [2] it was 10 ± 1 µM.

As usually defined, the IC50 is the concentration that gives 50% inhibition.
